Results from publication doi:10.1101/2022.06.14.495942 (bioRxiv, 2022).
Read-outs that look alike come from different tables or passages of the source. Results are given in words; binding and its absence hold for the method and conditions named. Some results given as binding are weak or reduced against the parent protein; the word gives no strength. For some assays here: Where a sequence is shown, tags or fusion partners need not be part of it. Blank lines part the entries; values can stand above or below the molecule they belong to.

Assays:
[1] = target: T1, 5xmyc-LFY, in vitro-produced Full Length (FL) LFY (Arabidopsis thaliana) (UniProt Q00958); test: native gel or EMSA
T1 sequence: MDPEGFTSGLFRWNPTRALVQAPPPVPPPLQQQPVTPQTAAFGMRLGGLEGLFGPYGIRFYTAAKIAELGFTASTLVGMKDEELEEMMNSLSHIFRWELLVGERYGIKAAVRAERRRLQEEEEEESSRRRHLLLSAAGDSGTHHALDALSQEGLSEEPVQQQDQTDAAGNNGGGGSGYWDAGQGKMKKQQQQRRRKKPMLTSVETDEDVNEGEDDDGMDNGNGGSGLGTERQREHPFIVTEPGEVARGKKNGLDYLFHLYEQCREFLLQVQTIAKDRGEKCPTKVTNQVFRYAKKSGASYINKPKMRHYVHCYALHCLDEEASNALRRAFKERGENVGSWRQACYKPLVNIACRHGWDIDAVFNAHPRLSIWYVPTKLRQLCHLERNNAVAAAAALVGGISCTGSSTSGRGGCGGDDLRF

[2] = target: T1, 5xmyc-LFY, in vitro-produced Full Length (FL) LFY (Arabidopsis thaliana); test: native gel or EMSA; remark: listed apart in the source
[3] = target: T2, LFY-40 (LEAFY lacking the first 40 aa), yeast two-hybrid construct (Arabidopsis thaliana) (UniProt Q00958); test: two-hybrid
T2 sequence: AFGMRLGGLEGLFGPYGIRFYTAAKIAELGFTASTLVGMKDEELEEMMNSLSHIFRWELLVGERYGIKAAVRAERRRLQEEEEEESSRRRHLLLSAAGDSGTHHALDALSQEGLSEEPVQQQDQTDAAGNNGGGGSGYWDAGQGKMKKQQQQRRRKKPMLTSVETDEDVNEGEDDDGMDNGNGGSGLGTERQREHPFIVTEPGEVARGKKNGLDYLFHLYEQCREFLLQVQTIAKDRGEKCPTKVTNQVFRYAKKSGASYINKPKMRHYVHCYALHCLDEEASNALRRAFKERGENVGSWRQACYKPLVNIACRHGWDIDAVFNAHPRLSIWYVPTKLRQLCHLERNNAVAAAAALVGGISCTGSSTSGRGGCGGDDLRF

[4] = target: T3, UFO in the purified ASK1-UFO-LFY-DBD complex (Arabidopsis thaliana) (UniProt Q39090); test: cryo-EM structure
T3 sequence: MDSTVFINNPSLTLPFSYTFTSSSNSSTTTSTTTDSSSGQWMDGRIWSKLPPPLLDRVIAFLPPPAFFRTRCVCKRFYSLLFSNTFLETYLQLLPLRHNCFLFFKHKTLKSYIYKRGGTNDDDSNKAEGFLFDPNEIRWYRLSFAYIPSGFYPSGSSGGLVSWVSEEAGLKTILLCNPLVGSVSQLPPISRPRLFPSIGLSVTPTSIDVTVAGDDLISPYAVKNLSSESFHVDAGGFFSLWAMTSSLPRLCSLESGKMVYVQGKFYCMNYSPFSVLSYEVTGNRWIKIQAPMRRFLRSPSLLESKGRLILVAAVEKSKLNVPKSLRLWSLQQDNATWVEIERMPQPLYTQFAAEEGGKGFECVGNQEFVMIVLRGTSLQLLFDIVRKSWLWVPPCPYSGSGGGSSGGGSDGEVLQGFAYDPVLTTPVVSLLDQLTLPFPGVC

Molecule: UFOΔFbox-3xFLAG, recombinant (from UniProt Q39090 91-442) (domain or fragment)
binding [1]: binds

Molecule: ASK1-UFO complex, recombinant (from UniProt Q39255 1-160; Q39090 1-442)
binding [2]: binds
binding [1]: binds

binding [3]: binds
B1: UNUSUAL FLORAL ORGANS (UFO), yeast two-hybrid construct of Figures S2F and S5D (protein, UniProt Q39090 1-442)
chain: MDSTVFINNPSLTLPFSYTFTSSSNSSTTTSTTTDSSSGQWMDGRIWSKLPPPLLDRVIAFLPPPAFFRTRCVCKRFYSLLFSNTFLETYLQLLPLRHNCFLFFKHKTLKSYIYKRGGTNDDDSNKAEGFLFDPNEIRWYRLSFAYIPSGFYPSGSSGGLVSWVSEEAGLKTILLCNPLVGSVSQLPPISRPRLFPSIGLSVTPTSIDVTVAGDDLISPYAVKNLSSESFHVDAGGFFSLWAMTSSLPRLCSLESGKMVYVQGKFYCMNYSPFSVLSYEVTGNRWIKIQAPMRRFLRSPSLLESKGRLILVAAVEKSKLNVPKSLRLWSLQQDNATWVEIERMPQPLYTQFAAEEGGKGFECVGNQEFVMIVLRGTSLQLLFDIVRKSWLWVPPCPYSGSGGGSSGGGSDGEVLQGFAYDPVLTTPVVSLLDQLTLPFPGVC

binding [4]: binds
B2: ASK1 in the purified ASK1-UFO-LFY-DBD complex (natural protein)
chain: MSAKKIVLKSSDGESFEVEEAVALESQTIAHMVEDDCVDNGVPLPNVTSKILAKVIEYCKRHVEAAASKAEAVEGAATSDDDLKAWDADFMKIDQATLFELILAANYLNIKNLLDLTCQTVADMIKGKTPEEIRTTFNIKNDFTPEEEEEVRRENQWAFE
